# Screen size: about 290,000 compounds; about 570 (0.2%) were called active. The shares of active, inactive and inconclusive entries below differ from those in the screen. Rule as the data show it: active = inhibition mostly above about 51% (no sharp cut-off); inconclusive = no clear call, values can overlap the other calls; inactive = mostly below about 53%.
# Chains of the proteins cited; added tags and fusions are not shown.
# UniProt Q00975, whole entry, looked up: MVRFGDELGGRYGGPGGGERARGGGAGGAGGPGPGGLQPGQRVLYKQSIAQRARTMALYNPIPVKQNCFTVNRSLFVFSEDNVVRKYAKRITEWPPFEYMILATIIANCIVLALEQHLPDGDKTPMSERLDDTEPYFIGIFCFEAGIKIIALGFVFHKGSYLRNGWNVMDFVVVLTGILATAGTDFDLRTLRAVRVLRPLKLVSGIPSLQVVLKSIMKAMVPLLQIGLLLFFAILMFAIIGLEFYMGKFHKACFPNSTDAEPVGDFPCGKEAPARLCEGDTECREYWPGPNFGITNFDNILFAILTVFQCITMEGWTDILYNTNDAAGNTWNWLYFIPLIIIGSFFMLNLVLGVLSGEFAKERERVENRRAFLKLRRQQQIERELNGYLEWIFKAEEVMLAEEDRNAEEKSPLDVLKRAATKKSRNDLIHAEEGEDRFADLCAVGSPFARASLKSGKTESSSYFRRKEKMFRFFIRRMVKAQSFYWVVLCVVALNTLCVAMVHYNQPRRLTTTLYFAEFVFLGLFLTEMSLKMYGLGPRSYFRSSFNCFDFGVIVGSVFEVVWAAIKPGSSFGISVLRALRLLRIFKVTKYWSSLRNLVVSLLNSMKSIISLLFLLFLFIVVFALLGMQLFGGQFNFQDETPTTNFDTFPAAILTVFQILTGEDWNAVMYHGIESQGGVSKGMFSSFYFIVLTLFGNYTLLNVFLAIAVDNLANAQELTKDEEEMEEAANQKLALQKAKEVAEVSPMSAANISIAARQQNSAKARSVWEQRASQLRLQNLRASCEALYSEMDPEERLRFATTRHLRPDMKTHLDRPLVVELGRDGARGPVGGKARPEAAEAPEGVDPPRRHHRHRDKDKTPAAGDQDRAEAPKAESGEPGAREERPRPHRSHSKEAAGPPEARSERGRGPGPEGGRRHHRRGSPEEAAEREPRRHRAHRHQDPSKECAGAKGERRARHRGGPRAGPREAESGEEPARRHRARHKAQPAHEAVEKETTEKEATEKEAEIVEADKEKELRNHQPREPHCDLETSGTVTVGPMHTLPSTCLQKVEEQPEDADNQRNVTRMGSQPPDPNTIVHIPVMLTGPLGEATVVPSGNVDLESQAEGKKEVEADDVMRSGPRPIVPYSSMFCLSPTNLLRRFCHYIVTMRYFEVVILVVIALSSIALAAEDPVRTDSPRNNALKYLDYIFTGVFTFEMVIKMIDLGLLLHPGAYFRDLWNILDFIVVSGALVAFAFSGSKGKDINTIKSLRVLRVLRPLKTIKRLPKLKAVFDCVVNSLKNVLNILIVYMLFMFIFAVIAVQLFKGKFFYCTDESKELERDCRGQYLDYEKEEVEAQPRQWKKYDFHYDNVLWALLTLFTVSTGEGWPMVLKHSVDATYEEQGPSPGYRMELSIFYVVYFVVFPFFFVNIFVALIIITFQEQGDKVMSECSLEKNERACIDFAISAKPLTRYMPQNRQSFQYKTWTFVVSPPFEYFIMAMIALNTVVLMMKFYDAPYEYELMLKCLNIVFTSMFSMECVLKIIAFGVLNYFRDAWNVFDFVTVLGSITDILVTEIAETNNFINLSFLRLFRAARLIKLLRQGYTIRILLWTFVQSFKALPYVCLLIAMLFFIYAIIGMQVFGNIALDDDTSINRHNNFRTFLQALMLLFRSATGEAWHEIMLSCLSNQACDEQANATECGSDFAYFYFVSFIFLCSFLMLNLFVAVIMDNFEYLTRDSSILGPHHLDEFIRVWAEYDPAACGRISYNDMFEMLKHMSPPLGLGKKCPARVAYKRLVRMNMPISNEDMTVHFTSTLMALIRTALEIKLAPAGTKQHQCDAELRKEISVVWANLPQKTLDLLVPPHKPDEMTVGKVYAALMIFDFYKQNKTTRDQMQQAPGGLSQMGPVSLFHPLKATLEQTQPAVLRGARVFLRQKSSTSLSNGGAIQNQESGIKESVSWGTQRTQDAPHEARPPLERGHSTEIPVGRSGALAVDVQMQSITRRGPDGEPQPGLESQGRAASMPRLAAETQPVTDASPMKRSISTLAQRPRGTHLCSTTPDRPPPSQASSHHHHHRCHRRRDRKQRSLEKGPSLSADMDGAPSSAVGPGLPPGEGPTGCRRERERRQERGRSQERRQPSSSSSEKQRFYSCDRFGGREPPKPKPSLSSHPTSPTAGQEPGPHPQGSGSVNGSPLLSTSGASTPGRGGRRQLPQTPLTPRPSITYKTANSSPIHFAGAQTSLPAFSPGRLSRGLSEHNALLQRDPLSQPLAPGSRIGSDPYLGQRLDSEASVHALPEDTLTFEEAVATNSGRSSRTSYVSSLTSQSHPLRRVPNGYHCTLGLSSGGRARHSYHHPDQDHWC
# Molecular target: Voltage-dependent N-type calcium channel subunit alpha-1B (Homo sapiens) (UniProt Q00975)
# Test: disruptors of CaV2.2 binding to Mint1 – biochemical, HTRF (AID 2073)
# Settings: HTRF protein-protein interaction, Mint1-CaV2.2; at 20 µM; stronger effect = higher value
row,SMILES,inhibition
1,COC(=O)c1ccc(Nc2cc(C)nc3ccc(C)cc23)cc1,inconclusive: 62%
2,CCOc1ccc2oc(C(=O)NC(C)(C)CC)c(C)c2c1,inconclusive: 78.4%
3,O=c1cc(O)c2sc(Nc3ccc(F)cc3)nc2[nH]1,active: 63.2%
4,CC(C)OCCCNC(=O)c1c(N)n(/N=C/c2cccs2)c2nc3ccccc3nc12,inconclusive: 101%
5,COc1ccc(Br)cc1C1CC(=O)N2CN(C)CSC2=C1C#N (configuration not stated),inactive: 87.7%
6,COc1ccc(C(=O)/C=C/C(=O)N(Cc2ccccc2)C(C(=O)NC2CCCCC2)c2ccncc2)c(O)c1 (configuration not stated),inconclusive: 57.6%
7,COc1ccc(C(=O)c2ccccc2)c(OCC(=O)N(C)C)c1,inconclusive: 51.7%
8,CCOC(=O)/C(=N\Nc1ccc(C(C)=O)cc1)c1csc(Nc2ccccc2)n1,inconclusive: 68.3%
9,COc1ccc(C(=O)Cc2cc(OC)c(OC)cc2[N+](=O)[O-])cc1,inconclusive: 53.9%
10,CNC(=S)NNC(=O)Cc1ccc(OC)c(OC)c1,inactive: -18.7%
11,N#Cc1c(-c2ccco2)cc(-c2ccccc2)[nH]c1=O,inactive: 48.2%
12,Cc1ccc(N2CC(C(=O)OCC(=O)c3ccc([N+](=O)[O-])cc3)CC2=O)cc1 (configuration not stated),inconclusive: 72.4%
13,COc1cc(NC(=O)CN2C(=O)C(c3ccccc3)=NC2(C)C)cc(OC)c1,inconclusive: 68.8%
14,Cc1nc2c(C)c(C)c(C)c(C)c2nc1C,inconclusive: 53%
15,COC(=O)c1cccc(NC(=O)c2cc3ccccc3o2)c1,inconclusive: 57.9%
16,CCC(C)(C)C1CCC(=NNS(=O)(=O)c2ccc(C)c([N+](=O)[O-])c2)CC1 (configuration not stated),inconclusive: 52.5%
17,O=C(/C=C/c1ccccc1)N1CCN(S(=O)(=O)c2ccc(F)cc2)CC1,inactive: -4.1%
18,Cc1ccc(OCC(=O)NNC(=O)C2CCN(c3ncccn3)CC2)cc1,inconclusive: 68.5%
19,CCCCCCN(C(=O)CCCCCN1C(=O)NC(c2ccc(-c3ccccc3)cc2)C(C(=O)OCc2ccccc2)=C1C)C(C(=O)NCCCC)c1ccc(OCC(=O)OC)c(C(=O)OC)c1 (configuration not stated),inconclusive: 68.2%
20,COc1ccccc1C(=O)Nc1nc2cc3c(cc2s1)OCO3,inconclusive: 68.2%
21,O=S(=O)(NCC1CCCO1)c1ccc(Oc2ccccc2)cc1 (configuration not stated),inactive: 8.9%
22,COc1ccc2[nH]cc(/C=N/NS(=O)(=O)c3ccc(C)cc3)c2c1,inconclusive: 92.2%

row,SMILES,inhibition
1,CN1CCc2nc(NC(=O)COc3ccc(C#N)cc3)sc2C1,inconclusive: 63.3%
2,COCC1CCCCN1Cc1cn[nH]c1-c1ccc(OC)cc1OC (configuration not stated),inconclusive: 74.5%
3,O=C(c1ccc2nc(-c3ccco3)c(-c3ccco3)nc2c1)N1CCN(c2ccccc2)CC1,inactive: 47.9%
4,COc1ccc(NC(=S)Nc2cccc3cnccc23)cc1,active: 77.7%
5,O=C(O)c1ccc(/C=C/c2nc3sc4c(c3c(=O)[nH]2)CCC4)cc1,inactive: 40.5%
6,CN(C)CC#Cc1cncc(C(=O)NNC(=O)Nc2ccc(Cl)cc2)c1,inconclusive: 78.6%
7,CCOC(=O)C1=C(C)Nc2nc3ccccc3n2C1c1ccccc1 (configuration not stated),inconclusive: 65%
8,CCOCCCNC(=O)/C(C#N)=C/c1ccc(Cl)c([N+](=O)[O-])c1,inconclusive: 67.4%
9,O=C(c1cnc(N2CCN(c3ccccn3)CC2)c2ccccc12)N1CCN(c2cccc(Cl)c2)CC1,inconclusive: 62.3%
10,O=C(NN1C(=O)C2C3C=CC(C3)C2C1=O)c1ccncc1 (configuration not stated),inactive: 5.7%
11,C=CCSc1n[nH]c(-c2cccs2)n1,inconclusive: 79.5%
12,Cc1ccc(NC(=O)C2CCCN(S(=O)(=O)c3c(C)noc3C)C2)cc1 (configuration not stated),inconclusive: 87.3%
13,COc1ccc(C2c3ccc(O)cc3Oc3ncn4nc(-c5cccnc5)nc4c32)cc1OC (configuration not stated),inconclusive: 75.9%
14,CCC(C)N(C(=O)Cn1nnc2ccccc21)C(C(=O)Nc1ccc(F)cc1)c1cccc(OC)c1 (configuration not stated),inconclusive: 79.1%
15,COc1ccc(Nc2cc(C(=O)NCCCN3CCN(C)CC3)c3ccccc3n2)cc1OC,inconclusive: 73.2%
16,CC(Oc1ccc(F)cc1Br)c1nc2ccccc2c(=O)[nH]1 (configuration not stated),inactive: 10.2%
17,CCc1ccccc1NC(=O)Cn1ccn(-c2ccc(OC)cc2)c(=O)c1=O,inconclusive: 52.3%
18,O=[N+]([O-])c1cccc(-c2nc(-c3ccccn3)no2)c1,inconclusive: 81.4%
19,CCOC(=O)c1c(-c2ccccc2)cn2c(C)cc(C)nc12,inconclusive: 52.3%
20,CCCn1c(CN2CCN(C(=O)c3ccco3)CC2)nc2c1c(=O)n(C)c(=O)n2C,inconclusive: 54.6%
21,COCCCn1c(=NC(=O)c2ccncc2)c(C#N)cc2c(=O)n3cccc(C)c3nc21,inconclusive: 56.8%
22,O=c1c(-c2nc3ccccc3s2)cccn1Cc1ccccc1,inconclusive: 58.3%

# Single entries from the list.
# inhibition with `CCC(C)N(C(=O)Cn1nnc2ccccc21)C(C(=O)Nc1ccc(F)cc1)c1cccc(OC)c1` (configuration not stated) reads inconclusive: 79.1%
# inhibition with `CCOCCCNC(=O)/C(C#N)=C/c1ccc(Cl)c([N+](=O)[O-])c1` reads inconclusive: 67.4%
# inhibition with `COc1ccc(Nc2cc(C(=O)NCCCN3CCN(C)CC3)c3ccccc3n2)cc1OC` reads inconclusive: 73.2%
# inhibition with `CCOC(=O)c1c(-c2ccccc2)cn2c(C)cc(C)nc12` reads inconclusive: 52.3%

# Continuation.

row,SMILES,inhibition
1,CCCc1ccc(-c2c(C)sc(N)c2C#N)cc1,inconclusive: 58.7%
2,CC1Oc2ccccc2N(CC(=O)N2CCc3ccccc32)C1=O (configuration not stated),inactive: -10.9%
3,O=C(CSc1nnnn1C1CCCCC1)NNC(=O)c1ccco1,inconclusive: 61%
4,CCCSCCCNC(=O)c1cc2c(s1)CS(=O)(=O)C2,inactive: 2%
5,NC(=S)n1[nH]c(-c2ccc([N+](=O)[O-])cc2)c(N=Nc2cccc(Cl)c2)c1=O,inactive: 64.1%
6,CCC(=O)N1CCc2cc(Br)cc(S(=O)(=O)N3CCC(C(=O)NC(C)(C)C)CC3)c21,inconclusive: 71.5%
7,COc1ccc(CN(C)CC(=O)Nc2sc3c(c2C#N)CCC3)cc1OC,inconclusive: 66.5%
8,O=C(NC1=C(Nc2ccc(Cl)cc2)C(=O)c2ccccc2C1=O)c1ccccc1,inactive: -10.9%
9,COCCNC(=O)/C(C#N)=C/c1ccc2c(c1)OCO2,inconclusive: 81.9%
10,Cc1ccc(S(=O)(=O)NCCc2cc3ccc(C)c(C)c3[nH]c2=O)cc1,inconclusive: 71.8%
11,N#Cc1c(NC(=O)CSc2n[nH]c(N)n2)oc(-c2ccccc2)c1-c1ccccc1,inconclusive: 61.7%
12,O=C(Nc1cccc(Cl)c1)Nc1ccccc1C(=O)NCc1ccco1,inactive: 3.4%
13,Cc1nc(-c2ccccc2)sc1C(=O)CSc1ccc(Cl)cc1,inconclusive: 64.2%
14,CCC(=O)c1ccc(OCC(=O)N2CCN(c3ccccn3)CC2)cc1,inconclusive: 53.8%
15,Nc1ccc2nn(-c3ccccc3)nc2c1,inconclusive: 75.8%
16,O=[N+]([O-])c1ccccc1-c1ccc(/C=N/n2cnnc2)o1,inactive: -7.6%
17,c1ccc2c(N3CCOCC3)nc(N3CCOCC3)nc2c1,inconclusive: 93.8%
18,C=CCc1ccc(O)c(-c2ccc(O)c(CC=C)c2)c1,inconclusive: 62.6%
19,C/C(=N\NC(N)=O)c1ccc(Cl)s1,inconclusive: 65.4%
20,O=C1COc2ccc(C(=O)COC(=O)Cc3ccccc3F)cc2N1,inconclusive: 66.6%
21,O=C(/C=C/c1ccc2c(c1)OCO2)Nc1nc(-c2ccc(F)cc2F)cs1,inactive: 9.1%
22,COc1ccc2oc(=Nc3ccccc3)c(-c3nc4ccccc4[nH]3)cc2c1,inactive: 37.9%

row,SMILES,inhibition
1,O=[N+]([O-])c1ccc(N/N=C/c2sc(N3CCOCC3)nc2-c2ccccc2)c(S(=O)(=O)Nc2ccccc2Cl)c1,inactive: 30.5%
2,COc1ccc(N=C2NC(=O)/C(=C\c3ccco3)S2)cc1,active: 81.2%
3,Cc1ccc(NC(=O)Cn2c(C)cc(C)c(C#N)c2=O)c(Cl)c1,inactive: 2.7%
4,c1ccc(-c2nnn(C34CC5CC(CC(C5)C3)C4)n2)cc1,inconclusive: 50.5%
5,COc1ccc(-c2cc(C(F)(F)F)c(C#N)c(SCC(=O)Nc3ccccc3C#N)n2)cc1,inconclusive: 68.8%
6,Cc1ccc(Oc2ncccc2NC(=O)CC2(CC(=O)O)CCCC2)c2c1CCC2,inconclusive: 51.4%
7,O=C(NCCO)c1cccc(Nc2nc(-c3ccccc3)c3cc(Cl)ccc3n2)c1,inactive: 11.1%
8,COC(=O)C1CN(C(=O)COc2ccc(C)cc2)c2ccccc2O1 (configuration not stated),inconclusive: 58.3%
9,COc1cccc(/C=C/C(=O)OCC(=O)Nc2cccc(S(=O)(=O)N3CCOCC3)c2)c1OC,inconclusive: 72.5%
10,COCCN(C(=O)C1=COCCO1)c1c(N)n(Cc2ccccc2)c(=O)[nH]c1=O,inconclusive: 55%
11,CN(C)c1ccc(N=Nc2ccccc2C(=O)OCC(=O)NCC2CCCCC2)cc1,inconclusive: 55.4%
12,Cc1ccc(CS(=O)(=O)c2nc3c(c(N(C)C)n2)CCCC3)cc1,inconclusive: 54.9%
13,COc1ccc(/C=C/C(=O)OCC(=O)Nc2cccc(C(C)=O)c2)cc1,inconclusive: 52.2%
14,O=C(COC(=O)c1cnccn1)Nc1ccc(Cl)cc1,inactive: 3.8%
15,Cc1ccccc1NC(=O)C1c2cccc[n+]2CC(=O)N1Cc1ccc2c(c1)OCO2 (configuration not stated),inconclusive: 72.2%
16,Cc1c(NC(=O)NCc2ccccc2)c(=O)n(-c2ccccc2)n1C,inconclusive: 90.4%
17,COc1ccc(N=C2S/C(=C\c3ccc(OCC(=O)O)cc3)C(=O)N2CCc2c[nH]c3ccccc23)cc1,inactive: 35.3%
18,COc1ccc(OC)c(N(CC(=O)NCc2ccccc2)S(=O)(=O)c2ccc(OC)c(OC)c2)c1,inconclusive: 64%
19,COc1ccc([N+](=O)[O-])cc1NC(=O)c1ccco1,inconclusive: 61.4%
20,COCCn1c(SCc2nc3sc(C(=O)OC)c(C)c3c(=O)[nH]2)nc2ccccc21,inconclusive: 87.6%
21,CCOCCSc1nnc2nc(C)cc(C)n12,inconclusive: 74.1%

# — PubChem BioAssay AID2073 (Sanford-Burnham Center for Chemical Genomics, 2009)
